Experimental findings from PMC11724882, “Molecular basis for the enzymatic inactivity of class III glutaredoxin ROXY9 on standard glutathionylated substrates” (Nature Communications, 2025) are described below.

These are yes or no findings as the source states them, for the method shown. Where a sequence is shown, tags or fusion partners need not be part of it.

The target in the experiment is strep-MBP-GRXC2 (Arabidopsis thaliana) (UniProt Q9FNE2). In words: SEC; analytical gel filtration of the affinity-purified strep-MBP fusion proteins (purified in the presence of 5 mM GSH); strep-MBP-ROXY9 also after DTT treatment; both purified. (In general: In gel filtration, larger molecules generally elute earlier.)

B1: strep-MBP-GRXC2 (enzyme, UniProt Q9FNE2 1-111)
chain: MAMQKAKEIVNSESVVVFSKTYCPYCVRVKELLQQLGAKFKAVELDTESDGSQIQSGLAEWTGQRTVPNVFIGGNHIGGCDATSNLHKDGKLVPLLTEAGAIAGKTATTSA
On to B1, for which the binding result is reported as “no binding”.
